Test results reported in PMC5135769.
No constants are given. Whether binding was seen depends on the method and setting. Binding seen in cells or lysates may run through a third protein. Some entries that bind do so weakly or less than the wild type.

Protein sequences, listed by entry. Tags and fused reporters are not part of them.
UniProt Q5SRE5: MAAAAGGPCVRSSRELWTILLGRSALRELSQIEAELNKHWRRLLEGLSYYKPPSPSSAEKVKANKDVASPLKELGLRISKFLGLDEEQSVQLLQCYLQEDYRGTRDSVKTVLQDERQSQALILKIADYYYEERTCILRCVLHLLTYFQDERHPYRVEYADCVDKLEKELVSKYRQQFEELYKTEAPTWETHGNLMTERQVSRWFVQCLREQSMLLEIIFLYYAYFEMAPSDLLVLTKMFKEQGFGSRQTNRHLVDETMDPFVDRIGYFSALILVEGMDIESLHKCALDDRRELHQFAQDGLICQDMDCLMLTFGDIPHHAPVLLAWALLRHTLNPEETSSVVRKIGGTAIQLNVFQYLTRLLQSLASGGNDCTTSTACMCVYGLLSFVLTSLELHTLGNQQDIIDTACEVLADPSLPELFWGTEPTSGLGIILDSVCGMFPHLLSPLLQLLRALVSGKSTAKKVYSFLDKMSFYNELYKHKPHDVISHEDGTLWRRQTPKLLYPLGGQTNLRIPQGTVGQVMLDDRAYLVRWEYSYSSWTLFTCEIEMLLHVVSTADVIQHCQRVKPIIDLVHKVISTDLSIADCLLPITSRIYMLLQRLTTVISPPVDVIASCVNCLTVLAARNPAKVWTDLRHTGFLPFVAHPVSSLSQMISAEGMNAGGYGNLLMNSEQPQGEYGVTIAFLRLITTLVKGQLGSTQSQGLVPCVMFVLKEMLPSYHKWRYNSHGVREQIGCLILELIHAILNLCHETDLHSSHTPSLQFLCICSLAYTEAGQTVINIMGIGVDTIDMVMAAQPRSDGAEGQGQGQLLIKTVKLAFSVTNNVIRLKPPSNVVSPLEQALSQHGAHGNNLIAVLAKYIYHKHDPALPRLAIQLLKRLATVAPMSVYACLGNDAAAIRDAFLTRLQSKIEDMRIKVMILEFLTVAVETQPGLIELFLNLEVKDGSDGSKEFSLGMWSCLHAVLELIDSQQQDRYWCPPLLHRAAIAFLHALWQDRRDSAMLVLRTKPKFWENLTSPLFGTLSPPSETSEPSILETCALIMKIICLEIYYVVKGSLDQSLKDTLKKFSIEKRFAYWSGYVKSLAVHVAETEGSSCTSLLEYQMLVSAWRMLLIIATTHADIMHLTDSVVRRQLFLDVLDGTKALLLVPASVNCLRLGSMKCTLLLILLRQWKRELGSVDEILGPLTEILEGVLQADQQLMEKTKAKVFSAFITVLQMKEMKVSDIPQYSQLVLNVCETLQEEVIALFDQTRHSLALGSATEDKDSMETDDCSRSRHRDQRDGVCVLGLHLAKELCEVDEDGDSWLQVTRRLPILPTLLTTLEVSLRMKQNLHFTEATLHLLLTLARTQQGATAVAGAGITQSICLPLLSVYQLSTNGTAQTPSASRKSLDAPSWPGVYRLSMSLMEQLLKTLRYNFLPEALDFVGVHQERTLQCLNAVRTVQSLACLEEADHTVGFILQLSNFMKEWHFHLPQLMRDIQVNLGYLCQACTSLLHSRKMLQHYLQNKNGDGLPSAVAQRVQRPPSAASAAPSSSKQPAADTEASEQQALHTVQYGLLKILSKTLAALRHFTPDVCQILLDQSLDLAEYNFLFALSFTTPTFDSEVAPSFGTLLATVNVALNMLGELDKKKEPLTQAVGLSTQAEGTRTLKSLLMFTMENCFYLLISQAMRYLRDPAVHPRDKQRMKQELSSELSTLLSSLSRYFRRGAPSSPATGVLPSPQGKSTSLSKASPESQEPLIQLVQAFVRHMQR
UniProt Q92621: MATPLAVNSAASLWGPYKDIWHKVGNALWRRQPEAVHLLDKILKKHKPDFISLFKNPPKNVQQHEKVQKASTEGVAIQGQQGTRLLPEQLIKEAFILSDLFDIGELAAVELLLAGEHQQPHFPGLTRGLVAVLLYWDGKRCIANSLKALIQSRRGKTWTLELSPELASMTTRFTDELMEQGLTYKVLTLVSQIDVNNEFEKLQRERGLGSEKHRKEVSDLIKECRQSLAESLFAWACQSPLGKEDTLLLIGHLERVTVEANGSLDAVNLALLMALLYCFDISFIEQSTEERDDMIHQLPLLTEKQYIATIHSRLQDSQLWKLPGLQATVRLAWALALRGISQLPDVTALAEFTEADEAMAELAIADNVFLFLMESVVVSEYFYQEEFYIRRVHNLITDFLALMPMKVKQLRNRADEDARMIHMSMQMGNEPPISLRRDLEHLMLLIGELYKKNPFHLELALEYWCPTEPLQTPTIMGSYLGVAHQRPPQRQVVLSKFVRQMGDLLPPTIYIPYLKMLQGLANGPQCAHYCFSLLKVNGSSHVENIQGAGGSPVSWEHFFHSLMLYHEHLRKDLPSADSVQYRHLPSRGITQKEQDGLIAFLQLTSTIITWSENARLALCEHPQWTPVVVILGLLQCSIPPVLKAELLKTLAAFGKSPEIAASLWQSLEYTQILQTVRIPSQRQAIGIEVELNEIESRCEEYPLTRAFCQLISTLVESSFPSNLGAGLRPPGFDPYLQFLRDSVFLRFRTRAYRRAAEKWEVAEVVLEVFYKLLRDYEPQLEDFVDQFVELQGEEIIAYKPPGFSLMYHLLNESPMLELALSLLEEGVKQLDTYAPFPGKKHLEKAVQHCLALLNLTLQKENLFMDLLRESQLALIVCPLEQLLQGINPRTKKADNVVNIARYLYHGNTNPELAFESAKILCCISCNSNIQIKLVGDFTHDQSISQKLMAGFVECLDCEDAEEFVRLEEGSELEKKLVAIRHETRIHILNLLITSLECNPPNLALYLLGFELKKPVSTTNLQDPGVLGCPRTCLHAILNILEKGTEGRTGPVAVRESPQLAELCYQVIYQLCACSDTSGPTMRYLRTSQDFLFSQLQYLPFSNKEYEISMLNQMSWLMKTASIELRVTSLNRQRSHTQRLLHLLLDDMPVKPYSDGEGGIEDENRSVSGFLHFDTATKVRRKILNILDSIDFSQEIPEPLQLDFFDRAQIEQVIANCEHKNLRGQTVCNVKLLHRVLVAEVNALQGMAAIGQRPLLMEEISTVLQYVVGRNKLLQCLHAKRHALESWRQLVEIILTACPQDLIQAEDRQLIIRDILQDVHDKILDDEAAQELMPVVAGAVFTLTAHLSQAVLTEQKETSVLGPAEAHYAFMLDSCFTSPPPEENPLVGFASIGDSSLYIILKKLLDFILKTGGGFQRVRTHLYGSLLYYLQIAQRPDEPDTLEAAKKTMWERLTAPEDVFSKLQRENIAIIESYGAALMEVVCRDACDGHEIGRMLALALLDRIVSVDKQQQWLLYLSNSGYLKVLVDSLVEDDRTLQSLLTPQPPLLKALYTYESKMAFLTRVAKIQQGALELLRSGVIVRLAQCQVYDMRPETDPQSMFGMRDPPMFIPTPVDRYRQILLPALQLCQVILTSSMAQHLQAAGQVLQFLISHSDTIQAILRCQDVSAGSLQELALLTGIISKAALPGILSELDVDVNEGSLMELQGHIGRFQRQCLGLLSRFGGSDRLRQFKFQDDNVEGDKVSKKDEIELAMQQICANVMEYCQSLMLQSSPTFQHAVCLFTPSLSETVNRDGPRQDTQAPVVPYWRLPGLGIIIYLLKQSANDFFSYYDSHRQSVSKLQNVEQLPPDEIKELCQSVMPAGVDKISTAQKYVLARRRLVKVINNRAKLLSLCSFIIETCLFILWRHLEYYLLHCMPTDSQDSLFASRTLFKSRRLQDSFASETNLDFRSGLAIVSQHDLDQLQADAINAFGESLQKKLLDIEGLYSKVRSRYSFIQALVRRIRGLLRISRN

Legend:
[1] = target: Nup188 (human (endogenous in DLD1)) (UniProt Q5SRE5); assay: co-IP; reverse co-IP: IP with anti-Nup188 antibody from DLD1 whole-cell extracts, protein A dynabeads, Western blot; Co-IP buffer 50 mM Tris-HCl pH 8.0, 150 mM NaCl, 0.5% NP-40
[2] = target: T1, Nup93 (human (endogenous in DLD1)) (UniProt Q8N1F7); assay: co-IP; IP with anti-Nup93 antibody from DLD1 whole-cell extracts, protein A dynabeads, Western blot; Co-IP buffer 50 mM Tris-HCl pH 8.0, 150 mM NaCl, 0.5% NP-40; also done in Nup205-depleted (siRNA) cells
T1 sequence: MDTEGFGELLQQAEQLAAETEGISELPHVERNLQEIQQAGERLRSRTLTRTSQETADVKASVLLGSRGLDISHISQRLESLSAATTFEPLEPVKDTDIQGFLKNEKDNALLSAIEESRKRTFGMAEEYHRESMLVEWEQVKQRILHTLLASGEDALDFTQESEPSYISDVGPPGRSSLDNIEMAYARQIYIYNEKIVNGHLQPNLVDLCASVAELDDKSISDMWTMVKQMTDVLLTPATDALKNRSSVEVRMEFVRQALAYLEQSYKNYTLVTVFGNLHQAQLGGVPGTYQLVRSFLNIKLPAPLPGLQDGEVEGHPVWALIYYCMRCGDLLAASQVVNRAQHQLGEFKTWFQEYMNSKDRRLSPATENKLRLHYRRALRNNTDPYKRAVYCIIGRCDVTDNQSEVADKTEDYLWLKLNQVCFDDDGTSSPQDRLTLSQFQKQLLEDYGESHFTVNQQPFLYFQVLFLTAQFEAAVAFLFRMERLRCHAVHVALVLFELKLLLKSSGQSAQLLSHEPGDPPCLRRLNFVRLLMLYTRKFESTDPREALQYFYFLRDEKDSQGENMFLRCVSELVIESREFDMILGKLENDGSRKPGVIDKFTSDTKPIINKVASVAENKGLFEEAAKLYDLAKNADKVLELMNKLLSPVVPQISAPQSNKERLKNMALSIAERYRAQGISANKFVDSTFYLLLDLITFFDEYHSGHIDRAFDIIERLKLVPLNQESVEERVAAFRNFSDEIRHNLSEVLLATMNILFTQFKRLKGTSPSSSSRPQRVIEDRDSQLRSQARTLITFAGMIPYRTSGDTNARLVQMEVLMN

binding [1]: no binding
binding [2]: binds
Substance: Nup205 (from UniProt Q92621 1-2012)
